Here are results for 2 molecules from PMC8496196.

The target in test [1] is T1, GFP-MIG-5b(311-666) (C. elegans) (UniProt Q22227).
T1 sequence: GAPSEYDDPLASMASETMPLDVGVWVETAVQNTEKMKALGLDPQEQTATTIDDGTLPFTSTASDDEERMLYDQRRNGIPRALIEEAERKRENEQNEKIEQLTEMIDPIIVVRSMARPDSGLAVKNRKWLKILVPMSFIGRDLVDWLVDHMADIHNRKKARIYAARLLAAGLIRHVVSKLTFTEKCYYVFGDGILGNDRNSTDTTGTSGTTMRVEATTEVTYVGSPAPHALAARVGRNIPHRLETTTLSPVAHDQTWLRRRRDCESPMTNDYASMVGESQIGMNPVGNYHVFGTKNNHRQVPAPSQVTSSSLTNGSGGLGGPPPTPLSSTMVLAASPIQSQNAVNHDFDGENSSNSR
Kind of test: co-IP; COS-7 cells cotransfected; lysed in RIPA buffer; IP with anti-GFP antibody on Dynabeads protein G, 2 h at 4°C; immunoblot with anti-FLAG. Background: In western blotting, separated proteins are transferred to a membrane and probed.

Test [2] addresses T2, GFP-MIG-5b (MIG-5 isoform b, full length) (C. elegans) (UniProt Q22227).
T2 sequence: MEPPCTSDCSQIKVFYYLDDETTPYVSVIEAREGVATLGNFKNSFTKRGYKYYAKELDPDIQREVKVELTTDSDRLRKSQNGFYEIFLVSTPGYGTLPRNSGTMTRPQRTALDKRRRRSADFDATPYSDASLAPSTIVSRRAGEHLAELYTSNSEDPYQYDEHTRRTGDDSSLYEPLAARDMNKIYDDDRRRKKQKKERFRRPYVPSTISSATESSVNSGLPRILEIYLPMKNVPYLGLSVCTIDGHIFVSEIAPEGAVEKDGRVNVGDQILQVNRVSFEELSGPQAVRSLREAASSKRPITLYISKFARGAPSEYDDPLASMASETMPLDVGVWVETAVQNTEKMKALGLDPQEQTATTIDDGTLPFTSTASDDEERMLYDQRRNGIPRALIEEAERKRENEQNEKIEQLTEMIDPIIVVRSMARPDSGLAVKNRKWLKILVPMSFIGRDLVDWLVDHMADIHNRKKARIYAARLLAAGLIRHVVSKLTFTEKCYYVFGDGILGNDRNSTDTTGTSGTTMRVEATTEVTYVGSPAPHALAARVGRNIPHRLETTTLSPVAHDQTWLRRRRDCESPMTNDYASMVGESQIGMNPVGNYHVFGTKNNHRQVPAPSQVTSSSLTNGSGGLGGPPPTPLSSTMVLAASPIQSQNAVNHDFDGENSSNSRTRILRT
Described as above.

Test [3] has as its target kinase-negative CDK-14(K89R), yeast two-hybrid bait (C. elegans). Kind of test: two-hybrid; yeast two-hybrid screen with kinase-negative CDK-14(K89R) as bait.

Results are given in words; binding and its absence hold for the method and conditions named. Binding can be weak; no strength is given. For part of these data: Binding seen in cells or lysates may run through a third protein. For part of these data: Where a sequence is shown, tags or fusion partners need not be part of it.

With 3xFLAG-CDK-14 (C. elegans) (enzyme), the binding entry in test [1] and in test [2] was “binds” throughout.

B1: MIG-5 isoform b fragment (311-666 aa), yeast two-hybrid prey (domain or fragment, UniProt Q22227 311-666)
chain: GAPSEYDDPLASMASETMPLDVGVWVETAVQNTEKMKALGLDPQEQTATTIDDGTLPFTSTASDDEERMLYDQRRNGIPRALIEEAERKRENEQNEKIEQLTEMIDPIIVVRSMARPDSGLAVKNRKWLKILVPMSFIGRDLVDWLVDHMADIHNRKKARIYAARLLAAGLIRHVVSKLTFTEKCYYVFGDGILGNDRNSTDTTGTSGTTMRVEATTEVTYVGSPAPHALAARVGRNIPHRLETTTLSPVAHDQTWLRRRRDCESPMTNDYASMVGESQIGMNPVGNYHVFGTKNNHRQVPAPSQVTSSSLTNGSGGLGGPPPTPLSSTMVLAASPIQSQNAVNHDFDGENSSNSR
For B1, the binding result in test [3] is recorded as “binds”.
